Test system: S473K2
Details: data not shown

CN[C@@H]1C[C@H]2O[C@@](C)([C@@H]1OC)n1c3ccccc3c3c4c(c5c6ccccc6n2c5c31)C(=O)NC4 [staurosporine]
S473K2 fraction sensitivity to inhibitor: sensitive

Reference: patent publication US20080038277A1, “Dna Pkinase Inhibitors For Treating Cancer And Diabetes” (priority 2004, published 2008)
